Series [1] has as its system human colon cancer cells HCT116. Description: Detoxification/bioreduction of HEDS to mercaptoethanol (DTNB). It counts as cell-based.
Series [2] deals with human colon cancer cells HT29. The series is described as above. It counts as cell-based. The following applies: HEDS 3 hours.

As to `OCCSSCCO` [HEDS, hydroxyethyldisulfide], the “mercaptoethanol (ME) generated from HEDS” value in series [1] (HCT116, cells incubated with glucose, HEDS 3 hours) was “up to 3000 μM”; in series [2] (HT29, cells incubated with glucose), “up to 3000 μM”. In addition, the “efficiency of converting HEDS into ME relative to cells with glucose” value in series [1] (HCT116, cells without glucose (deprived 4 hours), HEDS 3 hours) was “six times less efficient”; in series [2] (HT29, cells without glucose (deprived 4 hours)) it was “six times less efficient”. In series [1] (HCT116, low concentrations (1-3 mM) of glucose compared to physiological 5 mM), the “detoxification of HEDS” value was “not being able to detoxify HEDS effectively”.

The values are drawn from patent US9522164B2, “Disulfide chemotherapeutic agents and methods of use thereof” (Lankenau Institute for Medical Research, priority 2007, dated 2016).
